The source of these data is patent US20160200802A1.

No constants are given. Whether binding was seen depends on the method and setting. A result given as binding can be weak or reduced; the word gives no strength.

Experiment [1] deals with stabilized soluble pre-fusion RSV F protein (RSV). In words: SPR, antibody immobilized, F protein injected. In general terms: In SPR one partner is held on a chip, and binding of the other changes the refractive index at the surface.
For experiment [2] the target is unchanged. Briefly: SPR.

B1: HMB2416 (antibody, human IgG1, V domains shown)
VH: QVQLQESGPGLVKPSQTLSLTCTVSGGSISSGDYYWSWIRQPPGKGLEWIGYIYFSGSTYYNPSLKSRVTMSGDTSKNQFSLRLSSVTAADTAVYYCAREDTTMAIPYYFDPWGRGILVTVSS
VL: SYVLTQPPSVSVAPGRTARITCGRHNIGNENVHWYQQRPGQAPVLVIYSDSDRPSGIPERFSGSNSGNTATLSISRVEAGDEADYYCQVWDSSTDQVVFGGGTKLTVL
In the case of B1, the binding result in experiment [1] and in experiment [2] was “binds” each time.

B2: HMB2432 (antibody, V domains shown)
VH: EVQLVQSGAEVKKPGTSLKISCKGSGFSFSNYWIGWVRQMPGKGLEWMGIVYPADSDTRYSPSFQGQVTISGDNSINTAYLQWSRLKASDTATYYCVRQIGGVVTTATDDYFYGMDIWGPGTTVIVSS
VL: ETTLTQSPSSLSASVGDRVTITCRASQTVKSFLNWYQQKPGKAPKLLIYDASDLQSGVPSRFSGSGSGTDFTLTISRLQPEDFATYFCQQSYRTPLTFGQGTRVEIK
With B2, the binding entry in experiment [1] and in experiment [2] was “binds” throughout.

B3: HMB2437 (antibody, human IgG1, V domains shown)
VH: QVTLKESGPVLVKPSETLTLTCTVSGFSLTDARMGVSWIRQPPGKALEWLAHIFSNDEKFYSTSLKTRLTISKDTSTSQVVLRMTNMDPVDTATYYCARVDQGWVNTYSAFYYGMDFWGQGTTVTVSS
VL: DIQMTQSPSSLSASVGERVTITCRASQYISTHLNWYQHKPGKAPRLLIYGASHLEGGDPSRFSGSGSGTDFSLTITSLQPEDFATYYCQQTYKTPITFAQGTRLEIK
In the case of B3, the binding entry in experiment [1] and in experiment [2] was “binds” each time.

B4: HMB2435 (antibody, human IgG1, V domains shown)
VH: QVQLVESGGGVVQPGRPLRLSCAASGFAFNNFALHWVRQAPGKGPEWLAAVSYDGTSPYYAESVRARFSISRDNSKKTFYLQLDSLRPEDTAVYYCARGLGSGSYSWIGYFYAMDVWGRGTTVTVSS
VL: QSALTQPASVSGSPGQSITISCTGTSSDVGGYVYVAWYQQHPGTAPKLIIYDVSDRPSGVSNRFSGSKSGNTASLTISGLQAEDDADYYCISYTDRNTVVFGGGTKLTVL
In the case of B4, the binding entry in experiment [1] and in experiment [2] was “binds” in each case.
